The target of test [1] is T1, Sds22^3myc (S. cerevisiae) (UniProt P36047).
T1 sequence: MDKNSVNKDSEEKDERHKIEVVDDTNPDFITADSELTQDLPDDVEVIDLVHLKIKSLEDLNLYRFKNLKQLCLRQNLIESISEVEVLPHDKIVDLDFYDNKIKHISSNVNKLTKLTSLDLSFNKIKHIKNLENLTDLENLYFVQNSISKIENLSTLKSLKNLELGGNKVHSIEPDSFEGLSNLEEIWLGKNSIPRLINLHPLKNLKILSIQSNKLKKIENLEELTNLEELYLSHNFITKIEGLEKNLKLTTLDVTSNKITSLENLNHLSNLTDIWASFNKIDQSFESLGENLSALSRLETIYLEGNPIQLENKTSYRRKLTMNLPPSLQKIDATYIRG
Description: co-IP; yeast lysates; immunoprecipitation with anti-myc antibody (overnight, 4°C, protein A sepharose), IP buffer 50 mM Tris/HCl pH 7.5, 100 mM KCl, 5 mM MgCl2, NP-40, 10% glycerol; Western blot; for Sds22^3myc lysates of wild-type and shp1-7 cells. A general note: A western blot detects proteins with antibodies after separation by electrophoresis.

A further test addresses T2, Glc8^3HA (S. cerevisiae) (UniProt P41818).
T2 sequence: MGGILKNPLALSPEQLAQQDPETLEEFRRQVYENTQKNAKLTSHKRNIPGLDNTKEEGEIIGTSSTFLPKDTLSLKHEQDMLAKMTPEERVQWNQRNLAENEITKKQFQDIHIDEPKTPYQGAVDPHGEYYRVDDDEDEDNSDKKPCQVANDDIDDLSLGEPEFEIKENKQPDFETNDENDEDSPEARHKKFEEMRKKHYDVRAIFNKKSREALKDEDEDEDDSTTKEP
Description: co-IP; yeast lysates; immunoprecipitation with pre-coupled anti-HA antibody (overnight, 4°C), IP buffer 50 mM Tris/HCl pH 7.5, 100 mM KCl, 5 mM MgCl2, NP-40, 10% glycerol; Western blot; for Glc8^3HA lysates of asynchronous or α-factor-arrested wild-type and shp1-7 cells.

For test [2], the target named is Glc7^3myc (S. cerevisiae) (UniProt P32598). Description: co-IP; yeast lysates; immunoprecipitation with anti-myc antibody (overnight, 4°C, protein A sepharose), IP buffer 50 mM Tris/HCl pH 7.5, 100 mM KCl, 5 mM MgCl2, NP-40, 10% glycerol; Western blot; for Sds22^3myc lysates of wild-type and shp1-7 cells.
In a further test the target is T3, Shp1^3HA (S. cerevisiae, UniProt P34223 1-423).
T3 construct: Shp1 (Ubx1), S. cerevisiae; source: S. cerevisiae DF5, chromosomal fusion SHP1^3HA::klTRP1, endogenous expression level, in lysate
T3 sequence (looked up): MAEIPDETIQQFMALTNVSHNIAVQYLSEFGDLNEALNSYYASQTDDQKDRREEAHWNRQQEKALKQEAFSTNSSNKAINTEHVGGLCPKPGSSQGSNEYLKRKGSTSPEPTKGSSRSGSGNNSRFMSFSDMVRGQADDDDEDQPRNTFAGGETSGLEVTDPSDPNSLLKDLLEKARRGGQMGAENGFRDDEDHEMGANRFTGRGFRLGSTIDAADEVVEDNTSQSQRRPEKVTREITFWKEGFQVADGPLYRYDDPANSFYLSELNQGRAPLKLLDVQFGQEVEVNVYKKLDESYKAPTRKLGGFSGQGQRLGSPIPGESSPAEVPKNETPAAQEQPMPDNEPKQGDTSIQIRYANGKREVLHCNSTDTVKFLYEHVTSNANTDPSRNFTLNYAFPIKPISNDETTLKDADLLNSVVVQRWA
Description: co-IP; yeast lysates; immunoprecipitation with pre-coupled anti-HA antibody (overnight, 4°C), IP buffer 50 mM Tris/HCl pH 7.5, 100 mM KCl, 5 mM MgCl2, NP-40, 10% glycerol; Western blot; for Glc8^3HA lysates of asynchronous or α-factor-arrested wild-type and shp1-7 cells.

Results are given in words; binding and its absence hold for the method and conditions named. In cells and extracts the contact can be indirect. Some binding calls cover weakened binding; strength is not graded here. For some of these results: Sequences can lack the tags named with a protein.

“Glc7 (endogenous, untagged) (from UniProt P32598 1-312) (enzyme)”: the binding result (in test [1]; with Glc8^3HA (S. cerevisiae)) was “binds” each time.

B1: Shp1^3HA (protein, UniProt P34223 1-423)
chain: MAEIPDETIQQFMALTNVSHNIAVQYLSEFGDLNEALNSYYASQTDDQKDRREEAHWNRQQEKALKQEAFSTNSSNKAINTEHVGGLCPKPGSSQGSNEYLKRKGSTSPEPTKGSSRSGSGNNSRFMSFSDMVRGQADDDDEDQPRNTFAGGETSGLEVTDPSDPNSLLKDLLEKARRGGQMGAENGFRDDEDHEMGANRFTGRGFRLGSTIDAADEVVEDNTSQSQRRPEKVTREITFWKEGFQVADGPLYRYDDPANSFYLSELNQGRAPLKLLDVQFGQEVEVNVYKKLDESYKAPTRKLGGFSGQGQRLGSPIPGESSPAEVPKNETPAAQEQPMPDNEPKQGDTSIQIRYANGKREVLHCNSTDTVKFLYEHVTSNANTDPSRNFTLNYAFPIKPISNDETTLKDADLLNSVVVQRWA
On to B1, for which the binding result in test [2] is “binds”.

B2: Glc7^3myc (enzyme, S. cerevisiae, UniProt P32598 1-312, looked up)
chain: MDSQPVDVDNIIDRLLEVRGSKPGQQVDLEENEIRYLCSKARSIFIKQPILLELEAPIKICGDIHGQYYDLLRLFEYGGFPPESNYLFLGDYVDRGKQSLETICLLLAYKIKYPENFFILRGNHECASINRIYGFYDECKRRYNIKLWKTFTDCFNCLPIAAIIDEKIFCMHGGLSPDLNSMEQIRRVMRPTDIPDVGLLCDLLWSDPDKDIVGWSENDRGVSFTFGPDVVNRFLQKQDMELICRAHQVVEDGYEFFSKRQLVTLFSAPNYCGEFDNAGAMMSVDESLLCSFQILKPAQKSLPRQAGGRKKK
notes: Glc7, catalytic subunit of protein phosphatase 1, S. cerevisiae; carboxyl-terminally tagged at its authentic chromosomal locus; also called PP1 catalytic subunit; source: S. cerevisiae DF5, expressed from the chromosomal GLC7 locus as sole source of Glc7, in lysate; not shown: 3myc, C-terminal, kept
Take B2: the binding result in the test with Shp1^3HA was “binds”.
